Results taken from PubChem BioAssay AID504444 (National Center for Advancing Translational Sciences (NCATS), 2011).
Screen size: about 360,000 compounds; about 7,500 (2.1%) were called active. The shares of active, inactive and inconclusive entries below differ from those in the screen. Calls come from the whole dose curve; as a rule, active = well fitted inhibition curve with a large enough effect; inconclusive = small, poorly fitted or top-dose-only effect, or effect the other way; inactive = flat fitted curve, though single readings scatter. Potencies beside an inconclusive call are fits to weak or partial responses and may not hold up.
Potency is the fitted concentration of half-maximal effect.

Test: Nrf2 qHTS screen for inhibitors; note: nearly all actives have a fitted effect of over 60% in size
Settings: A549 ARE-Fluc reporter, luciferase luminescence, 18-24 h; series mostly up to 46 µM
Procedure, shortened: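 A549 ARE_Fluc cells, 5000/well, 5% FBS OPTI-MEM; compounds in dose-response, 18-24 h at 37 °C/5% CO2; CellTiter-Fluor viability read (Ex 405/Em 525), then BugLite luciferase luminescence = Nrf2 activity.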
With COc1ccc(C2=NS(=O)(=O)N(C)C(C(=O)N3CCc4ccccc4C3)=C2)cc1OC the Potency was active: 14.6 µM.
For COc1ccc(/C=N/Nc2cc(C)nc(-n3nc(C)cc3C)n2)c(OC)c1, the Potency was inconclusive: 16.4 µM [falling, partial curve, poor fit].
For CCOc1ccc(N(CC(=O)NCc2ccccc2OC)S(C)(=O)=O)cc1, the Potency was inconclusive: 11.6 µM [activator, single point].
In the case of Cc1nn(Cc2ccc(Cl)cc2Cl)c(C)c1NC(=O)C1C2CCC(O2)C1C(=O)O (centres undefined), the Potency is reported as inconclusive: 9.2 µM [falling, partial curve, poor fit].
In the case of CCCOc1ccc(C(=O)N2CCC(c3nc4ccccc4s3)CC2)cc1, the Potency is reported as inconclusive: 29.1 µM [falling, single point].
With COc1cccc(C(=O)NCc2ccc(N3CCN(C(=O)OC(C)(C)C)CC3)cc2)c1 the Potency was inconclusive: 20.6 µM [falling, partial curve, poor fit].
With CN(CC(=O)Nc1cccc(F)c1)C(=O)/C=C/c1ccc(S(=O)(=O)N2CCCCCC2)cc1 the Potency was inconclusive: 11.6 µM [falling, partial curve].
With COc1ccc(CNC(=O)CN(Cc2ccc(C)cc2)C(=O)c2csnn2)cc1 the Potency was “inactive”.
With CCCCNc1oc(-c2ccc(OC)cc2)nc1S(=O)(=O)c1ccccc1 the Potency was inconclusive: 10.3 µM [falling, partial curve, poor fit].
With CCN(CC)S(=O)(=O)c1cccc(NC(=O)c2ccc(C#N)cc2)c1 the Potency was inconclusive: 20.6 µM [falling, single point].
With COc1ccc(C(=O)N2CCCC(CCC(=O)NCc3ccc(F)c(F)c3)C2)cc1F (centres undefined) the Potency was inconclusive: 7.31 µM [activator, partial curve].
In the case of Cc1cc(C)cc(N2CCn3c2nc2c3c(=O)n(Cc3c(F)cccc3Cl)c(=O)n2C)c1, the Potency is reported as “inactive”.
For Nc1nc(CN2CCN(c3ccccc3)CC2)nc(Nc2ccc(Cl)cc2)n1, the Potency was inconclusive: 23.1 µM [falling, single point].
In the case of Cc1ccccc1NS(=O)(=O)c1ccc(N2CCCC2=O)cc1, the Potency is reported as inconclusive: 2.91 µM [falling, full curve, poor fit].
With C=CCc1cc(C)ccc1OCC(O)CN1CCN(c2ccccc2)CC1 (centres undefined) the Potency was inconclusive: 7.31 µM [activator, single point].
With CCCOc1ccc(C(=O)NCC2OCCc3ccccc32)cc1OC (centres undefined) the Potency was inconclusive: 13 µM [falling, partial curve, poor fit].
With COC(=O)c1[nH]c2ccc(Cl)cc2c1NC(=O)c1ccccc1[N+](=O)[O-] the Potency was inconclusive: 18.4 µM [activator, partial curve, poor fit].
In the case of Cc1ccc(NS(=O)(=O)c2ccc(C(=O)N3CCN(S(=O)(=O)c4ccccc4)CC3)cc2)cc1, the Potency is reported as active: 20.6 µM.
With N#CCc1cccnc1Sc1ccc(Cl)cc1 the Potency was inconclusive: 0.651 µM [falling, full curve, poor fit].
In the case of N#Cc1ccc(NC(=O)COCc2cc(-c3ccco3)on2)cc1, the Potency is reported as inconclusive: 29.1 µM [activator, single point].
For O=c1cc(O)c2c(=O)n(Cc3ccccc3)c3ccccc3c2o1, the Potency was inconclusive: 20.6 µM [falling, partial curve].
In the case of CCCC(NC(=S)NCC1CCCO1)C12CC3CC(CC(C3)C1)C2 (centres undefined), the Potency is reported as active: 14.6 µM.
With Cc1ccccc1-c1coc2cc(O)ccc2c1=O the Potency was inconclusive: 7.31 µM [activator, partial curve, poor fit].
For Cc1cc(NS(=O)(=O)c2ccc(NC(=O)c3ccc(Cl)cc3Cl)cc2)no1, the Potency was “inactive”.
For Cc1[nH]n(C(N)=S)c(=O)c1N=Nc1ccc(Cl)cc1Cl, the Potency was inconclusive: 1.46 µM [activator, full curve, poor fit].
For Cn1c(=O)c2c(nc(CN3CCN(c4ccccc4F)CC3)n2Cc2ccc(F)cc2)n(C)c1=O, the Potency was inconclusive: 14.6 µM [falling, partial curve].
For Cc1oc(-c2cccs2)nc1CS(=O)CC(=O)NCCCN1CC(C)CC(C)C1 (centres undefined), the Potency was inconclusive: 0.0041 µM [falling, full curve, poor fit].
In the case of CCn1c2ccccc2c2cc(NC(=O)COC(=O)c3ccccc3O)ccc21, the Potency is reported as inconclusive: 18.4 µM [falling, single point].
In the case of COC(=O)CSc1nnc(CNC(=O)c2cc(OC)cc(OC)c2)n1-c1ccc(F)cc1, the Potency is reported as inconclusive: 20.6 µM [falling, single point].
For COc1cccc(C(=O)c2cn(CC(=O)NCc3ccco3)c3nc(C)ccc3c2=O)c1, the Potency was inconclusive: 20.6 µM [activator, partial curve].
In the case of CCOc1ccc(N(Cc2ccccc2)C(=O)c2nc(SC)ncc2Cl)cc1, the Potency is reported as inconclusive: 23.1 µM [falling, single point].
In the case of CCOc1ccc(NC(=O)c2cnccn2)cc1, the Potency is reported as inconclusive: 0.651 µM [activator, full curve, poor fit].
In the case of CN(C)S(=O)(=O)c1cccc(NC(=O)c2ccc(S(=O)(=O)N3CCCCC3)cc2)c1, the Potency is reported as inconclusive: 29.1 µM [falling, single point].
For COCCCNCCOCCOc1ccc(Cl)cc1Br, the Potency was inconclusive: 6.51 µM [activator, single point].
For COc1ccc(S(=O)(=O)N/N=C(/C)c2cccc(NC(=O)c3ccccc3Cl)c2)cc1, the Potency was inconclusive: 23.1 µM [falling, single point].
For N#Cc1ccccc1Cn1cc(/C=N/Nc2ccc([N+](=O)[O-])cn2)c2ccccc21, the Potency was inconclusive: 4.11 µM [falling, partial curve, poor fit].
With CCOc1cc(C(=O)NCc2ccccc2)ccc1OCC(=O)N1CCCCC1 the Potency was inconclusive: 7.31 µM [falling, partial curve, poor fit].
In the case of COc1cc2ccccc2cc1C(=O)N(CCN(C)C)c1nc2c(OC)ccc(OC)c2s1, the Potency is reported as inconclusive: 20.6 µM [activator, partial curve, poor fit].
With Cc1ccc(-n2nc(-c3ccccc3)c3cnc4cc5c(cc4c32)OCO5)cc1C the Potency was inconclusive: 0.058 µM [falling, full curve, poor fit].
